Values from PubChem BioAssay AID1259331 (Drosophila RNAi Screening Center, 2017)
The whole screen tested about 3,100 reagents; shown is a part drawn at random. Of all reagents, 126 (4.1%) were called active. 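Calls are per reagent; zinc was so toxic that few knock-downs lowered ATP further, so most hits raise ATP.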 The raw values are shown without normalisation. A number with no mark means an inactive call. The numbers tell different reagents against one gene apart. Not given: the amount of reagent.

- Screen: 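Genes whose knock-down changes cell survival under toxic zinc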 (primary screen)
- System: Drosophila S2R+ cells
- Reagent: long dsRNA against Drosophila genes
- Time to read-out: 5 days (4 days knock-down, then 1 day zinc)
- Conditions: zinc chloride at 15 mM final level for 1 day
- Measurement: 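Luminescent ATP assay standing in for viability; Z score is the mean over three replicate plates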
- Scale: mean Z score: higher = more ATP than other wells, better survival under zinc; ATP luminescence: higher = more ATP, more viable cells
- Active means: 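a reagent is called a hit when its Z score is above 1.5 or below -1.5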
- Meaning of the calls: active = hit, ATP up or down; inactive = not a hit

Silencing of p24-1 #1 gave: mean Z score 2.92 (active); ATP luminescence, replicate 1 = 1.14e5; ATP luminescence, replicate 2 = 1.15e5.
For p24-1 #2, the entry reads mean Z score 0.469; ATP luminescence, replicate 1 = 69344; ATP luminescence, replicate 2 = 59654.
Mics1 #1 showed mean Z score -0.565; ATP luminescence, replicate 1 = 36747; ATP luminescence, replicate 2 = 47120.
With knock-down of Mics1 #2, the record shows mean Z score 0.509; ATP luminescence, replicate 1 = 60257; ATP luminescence, replicate 2 = 54836.

A run of entries of the results above, for reference:
p24-1 #1 → mean Z score = 2.92 (active); ATP luminescence, replicate 1 = 1.14e5; ATP luminescence, replicate 2 = 1.15e5
p24-1 #2 → mean Z score = 0.469; ATP luminescence, replicate 1 = 69344; ATP luminescence, replicate 2 = 59654

The list goes on:
Dop2R #1 showed mean Z score 2.24 (active); ATP luminescence, replicate 1 = 64611; ATP luminescence, replicate 2 = 71333.
After knock-down of Dop2R #2, the record shows mean Z score 0.967; ATP luminescence, replicate 1 = 72487; ATP luminescence, replicate 2 = 80193.
With knock-down of mthl12, the screen gave mean Z score -0.266; ATP luminescence, replicate 1 = 37947; ATP luminescence, replicate 2 = 42045.
Against Mgtor #1 the deposit lists mean Z score 0.0824; ATP luminescence, replicate 1 = 30435; ATP luminescence, replicate 2 = 33490.
With knock-down of Mgtor #2, the screen gave mean Z score 0.308; ATP luminescence, replicate 1 = 55321; ATP luminescence, replicate 2 = 66137.
Glut1 #1 showed mean Z score -0.574; ATP luminescence, replicate 1 = 33387; ATP luminescence, replicate 2 = 34261.
Silencing of Glut1 #2 came out at: mean Z score -0.607; ATP luminescence, replicate 1 = 27559; ATP luminescence, replicate 2 = 27405.
Knock-down of Tsp29Fb #1 gave: mean Z score 0.864; ATP luminescence, replicate 1 = 64954; ATP luminescence, replicate 2 = 49983.
For Tsp29Fb #2, the entry reads mean Z score 0.0682; ATP luminescence, replicate 1 = 52607; ATP luminescence, replicate 2 = 60769.
